Results reported in the supplement of paper PMC3334620.
The full ranking holds about 33,000 sequences; the median of “E-score (-0.5 to 0.5)” is about -0.0014, and the highest 2% start at about 0.25. The list shows a part of the results.

What follows are sequences tested against T1, Cad1 (UniProt P24813) (assay: PBM E-score (8-mer binding enrichment) (E-score (-0.5 to 0.5)); higher = stronger / more preferred TF binding). Conditions: protein concentration: 100 nM; construct: GST-full length.
T1 sequence: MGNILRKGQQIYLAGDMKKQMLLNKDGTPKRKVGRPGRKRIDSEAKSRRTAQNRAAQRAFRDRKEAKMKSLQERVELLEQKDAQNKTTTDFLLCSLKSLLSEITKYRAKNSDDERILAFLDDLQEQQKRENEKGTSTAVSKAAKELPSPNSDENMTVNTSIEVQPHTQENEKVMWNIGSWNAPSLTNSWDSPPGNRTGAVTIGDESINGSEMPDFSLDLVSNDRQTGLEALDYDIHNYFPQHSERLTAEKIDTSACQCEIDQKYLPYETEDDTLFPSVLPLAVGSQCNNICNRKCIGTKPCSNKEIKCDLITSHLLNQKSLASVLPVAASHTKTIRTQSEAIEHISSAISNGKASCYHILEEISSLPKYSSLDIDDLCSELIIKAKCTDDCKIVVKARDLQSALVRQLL
Summary of the method: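 Universal all-10-mer Agilent arrays, double-stranded by primer extension on fresh or once-stripped slides, were probed with about 100-200 nM GST-tagged yeast transcription factors made by PURExpress. Fluorescent anti-GST detected bound protein, and masliner normalised the scans. E-scores from the Universal PBM Analysis Suite were given to each ungapped eight-base word pooled with its reverse complement.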

Sequence	PBM E-score
TGAAGAAA	0.0964
GAAGACAA	0.0581
CAATAATG	0.0688
GCCTAGAA	-0.126
AGTCGTGC	-0.15
AGGTCCCC	-0.312
CAGGTGCG	0.0717
ACTCAATC	-0.059
TAGTTAGA	0.0256
AGTTGCAC	-0.0648
ATGTTAGC	0.0327
ACGTTCGC	-0.156
CCATGAAC	0.124
AGAACGGC	0.0691
TATGGACA	0.139
AATCAACG	0.218
ACTGGCTC	-0.119
AAGCTGGC	-0.0814
CAGGGAAA	-0.054
AATCCGAA	-0.0355
GCATTTCA	0.0711
AGGTTCGG	-0.0731
GATATGGA	0.266
AGGCGACA	-0.09
ATACATTA	0.142

Sequence	PBM E-score
ATCCGTGG	-0.181
AATGTCCC	-0.161
AGACCGGC	-0.266
GACTAGTC	0.0487
AGTATACC	-0.0136
CAGAACCC	-0.00867
CTGCCCTC	-0.293
GTACCCAA	0.0319
CACATCTA	0.0263
AGAACCGA	-0.0568
GCGACCAC	-0.0263
TGTTCCAA	-0.0523
CAAAGGTA	-0.0389
GGCACAAC	-0.129
CGAGCTCC	-0.0362
GTTCCTAA	0.0435
ACATTGAC	0.0444
CCAACTCA	-0.0884
GCATGAGA	0.125
CCTCACAC	-0.132
ACTACTGC	-0.0336
CAAACGGG	-0.00709
AGGGGTGA	-0.343
ACTATCGA	-0.0586
ACTTTGGC	-0.0521

In a second layout: entries from further up
Sequence | PBM E-score
GCGACCAC | -0.0263
TGTTCCAA | -0.0523
CAAAGGTA | -0.0389
GGCACAAC | -0.129
CGAGCTCC | -0.0362
GTTCCTAA | 0.0435

Next entries.

Sequence	PBM E-score
ATAAAACG	0.0271
CCGCAGCG	-0.134
GAACCGTA	-0.126
GCGTAAAC	0.221
CTCGCTGA	0.0202
AATCCGAG	-0.0178
AGGAATGC	-0.122
AACAGCAC	0.1
GCTGAGGA	-0.222
ACGGTTAG	-0.181
TAACAGCA	0.15
ACGTACCA	0.0421
AATCTCTC	0.0573
GCATCGGA	0.112
CGGATTCA	0.152
GGCCTTGA	0.0013
TCTTTCAA	0.00752
CTTTGACC	-0.00588
AGTCTTTG	-0.0888
GTAGTGGA	0.0378
ACCACTCG	0.248
CCCTCCTC	-0.238
ACCCTAGC	-0.0846
ATACATAC	-0.195
ATAGCAGC	-0.071

Sequence	PBM E-score
AAATAAGT	0.102
GATCGAAC	-0.0289
CAAGTTTA	0.0121
GCGGTTAC	0.141
CCCAGTGC	-0.124
CGAACGAA	0.129
AGCTCTCA	-0.00832
GTTTTGCA	0.107
AGTTTCTG	0.0801
GAGCTTCA	0.0986
ACGAATTG	-0.035
GTTTAGTA	0.148
AAGCTCTG	-0.164
CTAAGCAA	0.0503
CCTTTCTC	-0.228
CGTACCGA	-0.0922
CAGTCATC	-0.119
CCACCTGC	-0.00282
ATATATTC	0.199
ACAAACAA	0.176
CTGCATCC	0.153
GTCCTTAA	0.195
AATCCGGC	0.104
CCTAATTA	0.156
CCCCCATC	-0.259

Sequence	PBM E-score
TCCGTCCA	-0.0226
ATAGTCTA	-0.1
TAGGTCAA	0.0823
CGTAATAG	0.0595
CGTCATGA	0.0268
ATACCGAG	0.00129
ATTTGCCC	0.0698
ACTGGTAC	-0.0677
CTCATTTC	-0.0186
CGTGAACA	0.12
AATTAGGC	0.16
ATATGTGC	0.0122
ACCCGAAA	0.0537
ACGAGGTC	0.0145
GGGTATTA	0.0451
GGCCGTAC	0.0841
CATAGAGG	0.0334
GCGGGTAA	-0.122
AGCATTAT	0.134
GGCGTAAA	0.0237
ATTGAGAA	0.14
ACCGTCGA	0.0162
CGTCCATC	0.0535
CGAAGATC	0.0255
AGTGGTAA	-0.01

Sequence	PBM E-score
ACCTGTCG	0.014
CGTCGAAG	-0.0148
CTAAATAC	0.0286
CTTGATGA	0.12
TGACTAAA	0.232
AAAAGGCT	-0.137
ACTAGGTA	0.125
CCGACATA	0.0533
TGGGCCCA	0.00117
TAACCAAA	0.088
GTACACAC	0.132
ACTACCTG	0.0564
GAGTGGCA	-0.0542
AGTCTCAA	-0.169
CAGCCACG	0.0309
ACAAGGCA	-0.071
CCTTGGAA	0.00444
GTGGCGGA	-0.2
AGGATACA	0.0144
AAACTCTT	-0.205
GACAAGGA	0.049
CTAGTGCC	-0.131
CCTGAGCA	0.0777
ACTACCAC	-0.0934
AGGGATTA	0.118

Sequence	PBM E-score
AGAAATCC	0.101
AATCCGTC	0.0433
CGAAGAAG	0.027
GAACGGGA	-0.239
ACCCAAGC	-0.189
GCATGAAA	0.14
CGCCCTGA	0.0238
CTGGTATC	0.0505
ACGATCTG	-0.0324
AGCAGGGC	-0.0265
GCACCGCC	-0.315
AAGACATT	-0.147
GATCGGTA	0.118
ACATGGAG	-0.202
ATAATTAA	0.323
AGCATCAC	-0.0601
ACAAGTGT	0.0643
GAGCTCCA	0.0585
AACTACAT	0.0419
ACTTCTAT	-0.0199
CCTCCAGG	-0.262
CACAAACC	-0.161

Part of the list above in a different format:
Sequence | PBM E-score
GATCGGTA | 0.118
ACATGGAG | -0.202
ATAATTAA | 0.323
AGCATCAC | -0.0601
ACAAGTGT | 0.0643
